Data published in the odorant receptor screen of Mainland et al. (2015).
Where “and” joins values, the source holds several entries; their conditions need not be identical. Equal values may be shown once. The list shows a part of the results. Each value is one well over the wells without odorant, computed here; the data are noisy.

These molecules were tested on OR8B3 H20R/Q24R/V34I/M114I clone 1727 (assay: odorant receptor activation (CRE luciferase / Renilla) (fold of no-odor wells); higher = more activation). Conditions: 100 µM.

| SMILES | odorant receptor activation |
| --- | --- |
| CCOc1cc(C=O)ccc1O [ethyl vanillin] | 0.394 |
| CCCCOC(C)=O [butyl acetate] | 0.487 |
| CS [methanethiol] | 0.827 |
| CCC(C)=O [2-butanone] | 0.242 |

What follows are molecules tested on OR8B4 E22G clone 1227 in the same assay as above. Conditions: 100 µM.

| SMILES | odorant receptor activation |
| --- | --- |
| CCOc1cc(C=O)ccc1O [ethyl vanillin] | 0.98 and 1.23 |
| CCCCOC(C)=O [butyl acetate] | 0.962 |
| CS [methanethiol] | 1.17 |
| CCC(C)=O [2-butanone] | 0.774 |

The molecules below were run on OR8B4 Y131H/C140F/C178R clone 1440 in the same assay as above. Conditions: 100 µM.

| SMILES | odorant receptor activation |
| --- | --- |
| CCOc1cc(C=O)ccc1O [ethyl vanillin] | 1.17 and 1.47 |
| CCCCOC(C)=O [butyl acetate] | 0.123 |
| CS [methanethiol] | 1.03 |
| CCC(C)=O [2-butanone] | 1.19 |

What follows are molecules tested on OR8B8 clone 1226 in the same assay as above. Conditions: 100 µM.

| SMILES | odorant receptor activation |
| --- | --- |
| CCOc1cc(C=O)ccc1O [ethyl vanillin] | 1.26 and 1.05 |
| CCCCOC(C)=O [butyl acetate] | 0.855 |
| CS [methanethiol] | 1.12 |
| CCC(C)=O [2-butanone] | 1.12 |

Each molecule was assayed on OR8B8 clone 1504 in the same assay as above. Conditions: 100 µM.

| SMILES | odorant receptor activation |
| --- | --- |
| CCOc1cc(C=O)ccc1O [ethyl vanillin] | 1.25 and 1.52 and 0.975 |
| CCCCOC(C)=O [butyl acetate] | 0.958 |
| CS [methanethiol] | 0.895 |
| CCC(C)=O [2-butanone] | 1.01 |

Each molecule was assayed on OR8D1 clone 1142 in the same assay as above. Conditions: 100 µM.

| SMILES | odorant receptor activation |
| --- | --- |
| CCOc1cc(C=O)ccc1O [ethyl vanillin] | 2 and 1.27 |
| CCCCOC(C)=O [butyl acetate] | 1.03 |
| CS [methanethiol] | 0.781 |
| CCC(C)=O [2-butanone] | 1.01 |

The molecules below were run on OR8D2 clone 1179 in the same assay as above. Conditions: 100 µM.

| SMILES | odorant receptor activation |
| --- | --- |
| CCOc1cc(C=O)ccc1O [ethyl vanillin] | 1.28 and 1 |
| CCCCOC(C)=O [butyl acetate] | 0.976 |
| CS [methanethiol] | 0.834 |
| CCC(C)=O [2-butanone] | 0.824 |

The molecules below were run on OR8D4 C120Y/R133K/F200L/L283P/R298K clone 1072 in the same assay as above. Conditions: 100 µM.

| SMILES | odorant receptor activation |
| --- | --- |
| CCOc1cc(C=O)ccc1O [ethyl vanillin] | 1.24 and 1.07 |
| CCCCOC(C)=O [butyl acetate] | 1.18 |
| CS [methanethiol] | 0.963 |
| CCC(C)=O [2-butanone] | 2.56 |

The molecules below were run on OR8G1 clone 1395 in the same assay as above. Conditions: 100 µM.

| SMILES | odorant receptor activation |
| --- | --- |
| CCOc1cc(C=O)ccc1O [ethyl vanillin] | 1.1 and 1.24 |
| CCCCOC(C)=O [butyl acetate] | 0.227 |
| CS [methanethiol] | 1.13 |
| CCC(C)=O [2-butanone] | 0.844 |

These molecules were tested on OR8G5 clone 1323 in the same assay as above. Conditions: 100 µM.

| SMILES | odorant receptor activation |
| --- | --- |
| CCOc1cc(C=O)ccc1O [ethyl vanillin] | 0.762 and 1.08 |
| CCCCOC(C)=O [butyl acetate] | 0.731 |
| CS [methanethiol] | 0.826 |
| CCC(C)=O [2-butanone] | 1.04 |
